Assay results published in patent US11028174 (LEPU BIOPHARMA, dated 2021).
Results are given in words; binding and its absence hold for the method and conditions named. Some results given as binding are weak or reduced against the parent protein; the word gives no strength.

B1: 47C6A3 chimeric mAb (antibody, V domains shown)
VH: DVQLQESGPGLVKPSQSLSLTCTVTGYSITSDYAWNWIRQFPGNKLEWMGYIIYSGSTSYNPSLKSRISITRDTSKNQFFLQLNSVTTEDTATYYCARSTMIATNWFAYWGQGTLVTVSA
VL: DIVMTQSHKFMSTSVVDRVSITCKASQDVSLAVAWYQQKPGQSPKLLIYWASTRHTGVPDRFTGSGSGTDFALTISSVQAEDLALYYCQQHYITPWTFGGGTKLEIK
notes: also called 47C6A3-chimera
B2: 89C10H8 chimeric mAb (antibody, V domains shown)
VH: EVQLVESGGGLVQPGRSLTLSCVASGFTFSNYWMTWIRQAPGKGLEWVASITNTGSSTFYPDSVKGRFTISRDNTRSTLFLQINSLRSEDTATYYCTRDTTIAPFDYWGQGVMVTVSS
VL: DIQMTQSPSFLSASVGDRVTITCKASQNLNEYLNWYQQKLGEAPKRLIYKTNTLQAGIPSRFSGSGSGIDYTLTISSLQPEDVATYFCSQYNSGNTFGAGTKLELK
notes: also called 89C10H8-chimera
B3: 67F3G7 chimeric mAb (antibody, V domains shown)
VH: QVKLLQSGAALVKPGASVKMSCKASGYIFTDFWVSWVKQSHEKSLEWIGEIYPNSGVSRYNEKFKGRATMTVDKSTSTAYLELSRLTSEDSAIYYCTKYFGYTYWFGYWGQGTLVTVSS
VL: DTVLTQSPALAVSLGQRITISCRASKSVSTYMHWYQQRSGLQPKLLIYSASHLESGVPSRFSGSGSGTDFTLTIDPVEADDIANYYCQQSNELPVTFGSGTKLEIK
notes: also called 67F3G7-chimera

Target: cynomolgus PD-L1 protein (cynomolgus) (UniProt G7PSE7)
Assay: ELISA, coated cynomolgus PD-L1

binding, binds:
B1
B2
B3
